Test results as given in paper PMC7606512.
No constants are given. Whether binding was seen depends on the method and setting. In cells and extracts the contact can be indirect. Some results given as binding are weak or reduced against the parent protein; the word gives no strength.

Molecular target: MITA, endogenous in THP-1 cells (human (endogenous in THP-1)), Q86WV6
Test: co-IP; endogenous proteins; THP-1 cells (also stably shCon or shRNF115#2) and MLFs (Rnf115+/+ and Rnf115−/−) infected with HSV-1; immunoprecipitated with anti-MITA (Fig. 7f); immunoblot
Details: remark: other sources report otherwise

- binding: binds
B1: TBK1, endogenous in THP-1 cells, Q9UHD2 1-729 (enzyme)
chain: MQSTSNHLWLLSDILGQGATANVFRGRHKKTGDLFAIKVFNNISFLRPVDVQMREFEVLKKLNHKNIVKLFAIEEETTTRHKVLIMEFCPCGSLYTVLEEPSNAYGLPESEFLIVLRDVVGGMNHLRENGIVHRDIKPGNIMRVIGEDGQSVYKLTDFGAARELEDDEQFVSLYGTEEYLHPDMYERAVLRKDHQKKYGATVDLWSIGVTFYHAATGSLPFRPFEGPRRNKEVMYKIITGKPSGAISGVQKAENGPIDWSGDMPVSCSLSRGLQVLLTPVLANILEADQEKCWGFDQFFAETSDILHRMVIHVFSLQQMTAHKIYIHSYNTATIFHELVYKQTKIISSNQELIYEGRRLVLEPGRLAQHFPKTTEENPIFVVSREPLNTIGLIYEKISLPKVHPRYDLDGDASMAKAITGVVCYACRIASTLLLYQELMRKGIRWLIELIKDDYNETVHKKTEVVITLDFCIRNIEKTVKVYEKLMKINLEAAELGEISDIHTKLLRLSSSQGTIETSLQDIDSRLSPGGSLADAWAHQEGTHPKDRNVEKLQVLLNCMTEIYYQFKKDKAERRLAYNEEQIHKFDKQKLYYHATKAMTHFTDECVKKYEAFLNKSEEWIRKMLHLRKQLLSLTNQCFDIEEEVSKYQEYTNELQETLPQKMFTASSGIKHTMTPIYPSSNTLVEMTLGMKKLKEEMEGVVKELAENNHILERFGSLTMDGGLRNVDCL
